Assay results: article PMC7845594, “Novel Immune Modulators Enhance Caenorhabditis elegans Resistance to Multiple Pathogens” (mSphere, 2021)
This continues a long series; more values of the same kind are listed elsewhere.

Tested on: C. elegans transcriptome
Assay: Transcriptome profiling (Affymetrix microarrays), differentially expressed genes
Format: in vivo, Caenorhabditis elegans
Conditions: downregulated genes
Description: To gain additional insight into the effect of LK molecules on C. elegans, young-adult, wild-type worms were treated with each drug at 100 µM for 8 h in the absence of pathogen. RNA was collected, and transcriptome profiling was performed.
Data were determined using Affymetrix microarrays, as described in Materials and Methods. Download Table S3, XLSX file, 0.07 MB.
Transcriptome profiling was performed on ∼6,000 wild-type, young adult worms incubated with either LK molecules or DMSO for 8 h. RNA isolation was performed using TRIzol extraction, followed by cleanup using RNeasy columns according to the manufacturer’s protocol. Each condition was analyzed in triplicate. Microarray data have been deposited in the GEO database, accession number GSE137516. […] Clustering and generation of the heat map was performed using Cluster 3.0 ([98]) and Treeview ([99]), respectively. Fold change of genes were normalized to average fold change of that gene over all clustered conditions. Genes and conditions were clustered using Euclidean distance and average linkages. […] Microarray data for non-LK molecules were collected from GEO omnibus. WormEXP was used as a secondary method for confirming statistical significance of potential pathways stimulated by each of the LK molecules ([100]). Gene ontologies were generated using DAVID ([101], [102]).

CNC(=O)Oc1c(Br)cc2sc(=O)oc2c1Br [LK34]
Fold Change (Affy_ID 171811_s_at, listed under genes K01D12.7 (LK34, LK38), C57047 (LK35), K01D12.15 (LK38)): 0.2752
Fold Change (Affy_ID 176276_s_at, listed under gene Y69A2AR.25 (LK34) or Y69A2AR.12 (LK38)): 0.3954
Fold Change (Affy_ID 192118_s_at, listed under gene F10C1.7 (LK34, LK35) or F10C1.8 (LK38)): 0.2969
Fold Change (Affy_ID 194255_x_at, listed under gene F22A3.6 (LK34, LK35) or C68743 (LK38)): 0.4293
Fold Change (Gene AC3.7, Affy_ID 190879_at): 0.3787
Fold Change (Gene B0035.13, Affy_ID 188123_at): 0.2094
Fold Change (Gene B0218.1, Affy_ID 188358_at): 0.1728
Fold Change (Gene B0379.1, Affy_ID 179086_s_at): 0.4182
Fold Change (Gene B0507.8, Affy_ID 180569_at): 0.1942
Fold Change (Gene C04G2.4, Affy_ID 172853_x_at): 0.2092
Fold Change (Gene C05C10.4, Affy_ID 189921_at): 0.2024
Fold Change (Gene C08E3.1, Affy_ID 172309_x_at): 0.114
Fold Change (Gene C08E3.13, Affy_ID 172565_x_at): 0.1205
Fold Change (Gene C08F11.13, Affy_ID 175229_at): 0.2724
Fold Change (Gene C14C6.2, Affy_ID 183566_at): 0.366
Fold Change (Gene C17B7.2, Affy_ID 181325_s_at): 0.2804
Fold Change (Gene C24D10.7, Affy_ID 172569_x_at): 0.2356
Fold Change (Gene C24D10.8, Affy_ID 172527_x_at): 0.238
Fold Change (Gene C24G6.6, Affy_ID 180541_s_at): 0.3761
Fold Change (Gene C27H5.4, Affy_ID 181334_s_at): 0.3238
Fold Change (Gene C28C12.5, Affy_ID 185774_s_at): 0.4973
Fold Change (Gene C29F4.2, Affy_ID 190884_at): 0.2089
Fold Change (Gene C32E8.7, Affy_ID 188220_at): 0.4493
Fold Change (Gene C33F10.9, Affy_ID 172834_x_at): 0.2463
Fold Change (Gene C34F11.4, Affy_ID 172885_x_at): 0.257
Fold Change (Gene C34F11.6, Affy_ID 172896_x_at): 0.2137
Fold Change (Gene C35A5.6, Affy_ID 179396_at): 0.15
Fold Change (Gene C35D10.11, Affy_ID 172630_x_at): 0.1378
Fold Change (Gene C46H11.4, Affy_ID 176895_s_at): 0.4829
Fold Change (Gene C48B4.10, Affy_ID 187264_at): 0.4681
Fold Change (Gene CTEL54X.1, Affy_ID 185910_at): 0.3393
Fold Change (Gene D1086.2, Affy_ID 177478_at): 0.2731
Fold Change (Gene D2024.7, Affy_ID 187178_s_at): 0.4525
Fold Change (Gene D2089.3, Affy_ID 178891_at): 0.432
Fold Change (Gene F07A11.5, Affy_ID 188623_at): 0.4695
Fold Change (Gene F08G2.1, Affy_ID 192280_s_at): 0.2639
Fold Change (Gene F08G2.2, Affy_ID 172835_x_at): 0.4147
Fold Change (Gene F08G2.3, Affy_ID 172899_x_at): 0.4223
Fold Change (Gene F08H9.8, Affy_ID 189993_at): 0.2938
Fold Change (Gene F09C12.7, Affy_ID 172687_x_at): 0.2916
Fold Change (Gene F11E6.3, Affy_ID 179439_s_at): 0.383
Fold Change (Gene F11E6.5, Affy_ID 189318_at): 0.3839
Fold Change (Gene F13B6.3, Affy_ID 180766_at): 0.1138
Fold Change (Gene F14F7.1, Affy_ID 188356_at): 0.3174
Fold Change (Gene F16F9.4, Affy_ID 188201_at): 0.3145
Fold Change (Gene F17C11.4, Affy_ID 180312_at): 0.308
Fold Change (Gene F18G5.6, Affy_ID 182444_at): 0.4672
Fold Change (Gene F20D6.5, Affy_ID 182519_at): 0.1522
Fold Change (Gene F26G1.7, Affy_ID 172882_x_at): 0.2257
Fold Change (Gene F27C8.4, Affy_ID 179424_at): 0.3297
Fold Change (Gene F28H1.2, Affy_ID 188459_s_at): 0.3476
Fold Change (Gene F28H7.3, Affy_ID 187996_s_at): 0.208
Fold Change (Gene F32B6.6, Affy_ID 172854_x_at): 0.2349
Fold Change (Gene F32G8.6, Affy_ID 190591_at): 0.2535
Fold Change (Gene F36D3.9, Affy_ID 189469_at): 0.02885
Fold Change (Gene F37A8.4, Affy_ID 188068_at): 0.07278
Fold Change (Gene F38A3.1, Affy_ID 188281_s_at): 0.1533
Fold Change (Gene F38E11.2, Affy_ID 192323_at): 0.1286
Fold Change (Gene F40B5.1, Affy_ID 187391_at): 0.2878
Fold Change (Gene F41F3.4, Affy_ID 189545_s_at): 0.3333
Fold Change (Gene F43C11.7, Affy_ID 186263_at): 0.4218
Fold Change (Gene F44C8.8, Affy_ID 189999_at): 0.3136
Fold Change (Gene F44D12.5, Affy_ID 172333_x_at): 0.175
Fold Change (Gene F44D12.7, Affy_ID 172327_x_at): 0.1686
Fold Change (Gene F45D11.15, Affy_ID 186801_s_at): 0.1089
Fold Change (Gene F45E4.8, Affy_ID 183438_s_at): 0.3976
Fold Change (Gene F47B10.2, Affy_ID 191301_s_at): 0.2777
Fold Change (Gene F48G7.10, Affy_ID 184636_at): 0.2176
Fold Change (Gene F49E12.10, Affy_ID 190009_at): 0.06655
Fold Change (Gene F52H3.7, Affy_ID 194236_x_at): 0.4356
Fold Change (Gene F53A9.6, Affy_ID 172363_x_at): 0.3981
Fold Change (Gene F53A9.8, Affy_ID 180612_s_at): 0.3337
Fold Change (Gene F53F4.13, Affy_ID 182491_at): 0.3071
Fold Change (Gene F54F11.2, Affy_ID 191753_at): 0.4195
Fold Change (Gene F55F3.2, Affy_ID 189534_at): 0.3116
Fold Change (Gene F55G1.3, Affy_ID 172702_x_at): 0.4079
Fold Change (Gene F58A4.7, Affy_ID 171841_x_at): 0.3786
Fold Change (Gene F58A6.8, Affy_ID 172889_x_at): 0.2151
Fold Change (Gene F58A6.9, Affy_ID 172743_x_at): 0.2491
Fold Change (Gene F58E10.7, Affy_ID 184175_at): 0.2647
Fold Change (Gene F58G1.4, Affy_ID 177978_at): 0.3408
Fold Change (Gene H02I12.6, Affy_ID 172891_x_at): 0.4351
Fold Change (Gene H12C20.3, Affy_ID 192782_at): 0.3312
Fold Change (Gene K02D7.1, Affy_ID 189003_s_at): 0.4499
Fold Change (Gene K03H6.2, Affy_ID 183309_at): 0.2526
Fold Change (Gene K05F1.2, Affy_ID 172815_x_at): 0.2831
Fold Change (Gene K05F1.7, Affy_ID 172904_x_at): 0.1817
Fold Change (Gene K07E8.3, Affy_ID 180256_at): 0.051
Fold Change (Gene K07F5.2, Affy_ID 172852_x_at): 0.2244
Fold Change (Gene K07F5.3, Affy_ID 172907_x_at): 0.2527
Fold Change (Gene K07F5.5, Affy_ID 172245_x_at): 0.3514
Fold Change (Gene K08F4.8, Affy_ID 172934_x_at): 0.2062
Fold Change (Gene K11E4.2, Affy_ID 190223_at): 0.4122
Fold Change (Gene M01D7.5, Affy_ID 173242_s_at): 0.2679
Fold Change (Gene T03D8.2, Affy_ID 190280_at): 0.4804
Fold Change (Gene T07C4.4, Affy_ID 178149_s_at): 0.4857
Fold Change (Gene T07G12.5, Affy_ID 188496_s_at): 0.08873
Fold Change (Gene T08B1.6, Affy_ID 192296_at): 0.2707
Fold Change (Gene T08B2.12, Affy_ID 184685_s_at): 0.1097
Fold Change (Gene T09A12.2, Affy_ID 190674_at): 0.4382
Fold Change (Gene T09F5.9, Affy_ID 188947_at): 0.3188
Fold Change (Gene T13F2.10, Affy_ID 172906_x_at): 0.2521
Fold Change (Gene T14B4.4, Affy_ID 190598_at): 0.3688
Fold Change (Gene T15B7.9, Affy_ID 182858_at): 0.306
Fold Change (Gene T20B3.2, Affy_ID 188278_s_at): 0.4132
Fold Change (Gene T20D4.11, Affy_ID 184438_at): 0.06663
Fold Change (Gene T21D12.9, Affy_ID 186872_s_at): 0.4251
Fold Change (Gene T22H2.6, Affy_ID 180962_s_at): 0.4341
Fold Change (Gene T23B12.8, Affy_ID 184855_at): 0.1217
Fold Change (Gene T23F4.1, Affy_ID 180223_s_at): 0.03953
Fold Change (Gene T23F4.3, Affy_ID 179815_at): 0.05033
Fold Change (Gene T27A10.7, Affy_ID 186153_s_at): 0.3368
Fold Change (Gene T27E4.7, Affy_ID 173757_s_at): 0.2826
Fold Change (Gene T28H11.6, Affy_ID 172704_x_at): 0.3753
Fold Change (Gene W03C9.3, Affy_ID 189720_s_at): 0.4449
Fold Change (Gene W04B5.2, Affy_ID 180561_at): 0.4474
Fold Change (Gene W07B8.5, Affy_ID 191887_s_at): 0.3128
Fold Change (Gene W07E6.1, Affy_ID 189661_at): 0.4658
Fold Change (Gene Y40D12A.2, Affy_ID 191017_at): 0.4317
Fold Change (Gene Y44A6C.1, Affy_ID 182843_at): 0.4517
Fold Change (Gene Y45F10A.5, Affy_ID 184558_at): 0.1996
Fold Change (Gene Y46G5A.21, Affy_ID 186464_s_at): 0.4571
Fold Change (Gene Y48A6B.7, Affy_ID 193926_at): 0.3048
Fold Change (Gene Y51A2D.13, Affy_ID 192992_at): 0.3832
Fold Change (Gene Y51H4A.24, Affy_ID 172511_x_at): 0.4578
Fold Change (Gene Y51H4A.7, Affy_ID 180145_s_at): 0.3224
Fold Change (Gene Y54G2A.7, Affy_ID 174102_at): 0.3028
Fold Change (Gene Y59H11AM.1, Affy_ID 172113_x_at): 0.2747
Fold Change (Gene Y71G12B.4, Affy_ID 176544_at): 0.3554
Fold Change (Gene Y71H2AL.1, Affy_ID 172177_x_at): 0.4226
Fold Change (Gene Y71H2AM.13, Affy_ID 176285_s_at): 0.4452
Fold Change (Gene Y105C5A.13, Affy_ID 172627_x_at): 0.07707
Fold Change (Gene Y105C5A.24, Affy_ID 187121_at): 0.4643
Fold Change (Gene Y119D3B.13, Affy_ID 175112_s_at): 0.3133
Fold Change (Gene ZC416.6, Affy_ID 188470_s_at): 0.3851
Fold Change (Gene ZK112.1, Affy_ID 175995_at): 0.2896
Fold Change (Gene ZK131.4, Affy_ID 190307_s_at): 0.3291
Fold Change (Gene ZK1248.4, Affy_ID 172734_x_at): 0.2861
Fold Change (Gene ZK1248.6, Affy_ID 172887_x_at): 0.1841
Fold Change (Gene ZK1251.6, Affy_ID 172938_x_at): 0.2528
